Values joined by “and” are separate entries in the source; they are usually repeats but may differ in a detail not shown here. Equal entries are not always repeated. The whole screen tested about 230,000 compounds, of which about 310 (0.13%) were called active. This list was built around the results that the source calls inconclusive (neither active nor inactive); the mix of calls is not that of the screen. Calls follow the shape of the dose curve; as a rule, active = well fitted activation curve with a large enough effect; inconclusive = small, poorly fitted or top-dose-only effect; inactive = no such curve, though single readings can be large or run the other way. Potencies beside an inconclusive call are fits to weak or partial responses and may not hold up.
Assay: qHTS Multiplex Assay to Identify Dual Action Probes in a Cell Model of Huntington: Cytoprotection (ATP); also: nearly all actives have a fitted effect of over 45% in size;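 as to cytoprotection (ATP increase): toxic huntingtin expression switched on by the ecdysone agonist tebufenozide; % of control where 0% means no effect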
Conditions: PC12 HTT-Q103 induced, ATP luminescence, 40 h; cytoprotection (ATP increase): at 56.4 µM (top of the series) unless noted
How it was run: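 Compounds were screened for protection of PC12 cells against cell death after tebufenozide induction (100 nM final) of mutant Huntingtin exon 1 (Q103) fused to GFP.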
Potency is read from the fitted curve at half-maximal effect.

Structure (SMILES) | Potency | cytoprotection (ATP increase)
CCCN(CCC)CCNC(=O)CCC(=O)Nc1ccc2nc(N3CCN(C)CC3)cc(C)c2c1 | inconclusive: 35.5 µM [activator, single point] | 
COc1ccc(Sc2nc3ccccc3n3c(C(F)(F)F)nnc23)cc1 | inactive | 
CNC(=O)COC(=O)/C=C/c1ccco1 | inactive | 
COCCCn1c(=O)/c(=C\c2ccccc2OC(F)F)s/c1=C(/C#N)C(N)=O | inactive | 
CCCCNC(=O)NS(=O)(=O)c1ccc(N)cc1 | inconclusive: 1 µM [activator, full curve, poor fit] | 
O=C(CN1C(=O)c2ccccc2C1=O)[C@@H](O)CN1C(=O)c2ccccc2C1=O |  | inactive: 2.99% [at 10 µM]
COc1cc2c(cc1OC)CN(Cc1ccc(C)s1)CC2 | inactive | 
Cc1ccc(C(=O)COC(=O)c2cnccn2)cc1[N+](=O)[O-] | inconclusive: 3.55 µM [activator, single point] | 
CO[C@@H]1COC(=O)C/C=C\[C@@H](C)COC(=O)[C@H](COCc2ccccc2)NC(=O)C/C=C\[C@H]1C | inconclusive: 1 µM [activator, partial curve] | 
Cc1nc2ccccn2c1C(=O)/C=C/c1cccc([N+](=O)[O-])c1 | inconclusive: 3.98 µM [activator, single point] | 
COCCCNC(=S)N/N=C/c1ccc(N(C)C)cc1 | inconclusive: 3.55 µM [activator, single point] | 
Oc1ccc2ccccc2c1C=NC1CCCCC1 | inconclusive: 0.282 µM [activator, full curve, poor fit] | 
COc1ccccc1CNC(=O)C1CCC1 |  | inactive: 4.71% [at 10 µM]
COc1ccc(CC(=O)Nc2ccc(C(=O)Nc3ccccc3C(=O)O)cc2)cc1OC | inconclusive: 1.26 µM [activator, single point] | 
CCc1ccc2c(c1)C(c1cccs1)=NNC(c1cccnc1)=N2 | inconclusive: 0.794 µM [activator, single point] | 
CC1=C([N+](=O)[O-])C(c2cccc(Br)c2)C2=C(N1)c1ccccc1C2=O (configuration not stated) | inactive | 
COc1ccccc1N1CC(C(=O)Nc2cccc(C(=O)O)c2)CC1=O (configuration not stated) |  | inactive: 1.89% [at 0.074 µM]
CC(=O)Nc1cccc(OCCCNC(=O)c2cccc3ccccc23)c1 |  | inactive: 2.98% [at 10 µM]
Cc1cc(C)c(S(=O)(=O)Nc2cccc(S(=O)(=O)NC3=NCCC3)c2)c(C)c1 | inconclusive: 0.0071 µM [activator, full curve, poor fit] | 
O=C(O)[C@@H](O)[C@@H](O)[C@H](O)[C@H](O)CO | inconclusive: 0.447 µM [activator, full curve, poor fit] | 
CCC(C)C(Nc1ccc(C(=O)OC)cc1[N+](=O)[O-])C(=O)OC (configuration not stated) | inconclusive: 5.62 µM [activator, single point] | 
CCCC(=O)N(c1ccc2oc(=O)sc2c1)S(=O)(=O)c1ccccc1 | inconclusive: 6.31 µM [activator, partial curve] | 
CC(=O)Nc1ccc(OC(=O)c2ccccc2O)cc1 | inactive | 

Structure (SMILES) | Potency | cytoprotection (ATP increase)
N#Cc1nc(COc2ccccc2F)oc1NCc1ccc(F)cc1 | inactive | 
O=c1c(O)c(-c2ccc(O)cc2)oc2cc(O)cc(O)c12 | inconclusive: 3.55 µM [activator, single point] and inconclusive: 31.6 µM [activator, partial curve, poor fit] and inconclusive: 631 nM [activator, partial curve] | 
Cc1cc(/C=C2\SC(=S)N(C)C2=O)c(C)n1-c1cccc(O)c1 |  | inactive: 18.6% [at 10 µM]
CCCN(c1ccc(C(=O)OC)cc1)S(=O)(=O)c1ccccc1 | inactive | 
COc1ccc(C2=NN(c3ccccc3)C(=O)/C2=C\c2ccc(O)c(OC)c2)cc1 | inconclusive: 1.58 µM [activator, single point] | 
CCCCC1C(=O)N(c2ccccc2)N(c2ccc(O)cc2)C1=O (configuration not stated) | active: 2.24 µM | 
CCN1CCC[C@@H]1CNC(=O)c1cc(S(N)(=O)=O)ccc1OC | inconclusive: 39.8 µM [activator, partial curve, poor fit] | 
COc1ccccc1C1CC(=O)Oc2cc(C)c(Cl)cc21 (configuration not stated) | inconclusive: 11.2 µM [activator, single point] | 
Cc1cc(O)c2c(c1O)C(=O)c1c(O)cc(C)c(O)c1C2=O | inconclusive: 0.794 µM [activator, single point] | 
COc1ccc(C(=O)Cn2c(C)nc([N+](=O)[O-])c2Br)cc1 | inconclusive: 3.98 µM [activator, single point] | 
CCN(CC)S(=O)(=O)c1ccc(C(=O)Nc2nnc(-c3ccco3)o2)cc1 | inactive | 
COc1ccc(NC(=O)C2(c3ccc(NC(=O)c4ccc(C)cc4)cc3)CCCC2)cc1 | inactive | 
CCC[C@H]1C[C@H](C(=O)N[C@@H]([C@H]2O[C@@H](SC)[C@@H](O)[C@@H](O)[C@@H]2O)[C@H](C)Cl)N(C)C1 | inconclusive: 3.16 µM [activator, full curve] | 
COC(=O)c1c(NC(=O)COC(=O)c2ccc(Cl)cc2[N+](=O)[O-])sc2c1CCCCC2 | inconclusive: 5.62 µM [activator, single point] | 
CC1=NN(c2ccc(C(=O)OC(C)C)cc2)C(=O)/C1=C\C=C\c1ccco1 |  | inactive: -23.6% [at 10 µM]
CCCCCCC#CC1C=CC(Oc2ccc(C=O)cc2)C(CO)O1 (configuration not stated) | inconclusive: 3.55 µM [activator, single point] | 
Cc1ccc(NN2C(=O)C=CC2=O)cc1 |  | inactive: -16.7% [at 10 µM]
O=[N+]([O-])c1ccc(CN2CCCCCC2)s1 | inconclusive: 0.282 µM [activator, partial curve] | 
O=C(O)CC1S/C(=N/N=C/c2ccc([N+](=O)[O-])cc2)N(c2ccc(O)cc2)C1=O (configuration not stated) |  | inactive: -29.3% [at 1.9 µM]
N#Cc1cccc(CS(=O)(=O)c2ccccc2)c1 | inactive | 
Cc1cccc(C(=O)NC(NC(=S)Nc2ccc(S(N)(=O)=O)cc2)C(Cl)(Cl)Cl)c1 (configuration not stated) |  | inactive: 27.2% [at 10 µM]
C/C(CCc1ccc2c(c1)OCO2)=N\N=C(/N)SC1CC(=O)N(c2ccccc2F)C1=O (configuration not stated) | inconclusive: 3.55 µM [activator, partial curve] | 
COc1cc2c(cc1OC)C(c1ccc(-c3ccccc3Cl)o1)=NCC2 | inactive | 

Structure (SMILES) | Potency | cytoprotection (ATP increase)
CC(NC(=O)c1ccco1)C1COc2ccccc2O1 (configuration not stated) | inconclusive: 2 µM [activator, partial curve] | 
CC1COC(=O)C(NNc2ccc(Cl)c(Cl)c2)=N1 (configuration not stated) | inconclusive: 0.316 µM [activator, partial curve, poor fit] | 
O=c1[nH]c(N2CCOCC2)nc2ncn(Cc3ccccc3)c12 | inconclusive: 1.26 µM [activator, single point] | 
O=C(NCC1COc2ccccc2O1)C1CCN(S(=O)(=O)c2cccc3nsnc23)CC1 (configuration not stated) | inactive | 
O=C(c1cccc(F)c1)N1CCC2(CC1)CCN(c1ccccc1)CC2 | inconclusive: 0.891 µM [activator, single point] | 
Cc1cccc(Nc2nc(-c3ccc4c(c3)OCCO4)cs2)c1 | inactive | 
COc1cc(C(C(=O)NC2CCCCC2)N(Cc2ccco2)C(=O)c2cnccn2)cc(OC)c1OC (configuration not stated) | inconclusive: 3.16 µM [activator, partial curve] | 
O=C(CN1CCN(S(=O)(=O)c2ccc(Br)cc2)CC1)N/N=C/c1cc([N+](=O)[O-])ccc1Cl | inconclusive: 1 µM [activator, partial curve] | 
Cc1onc(C(=O)NCc2cccs2)c1[N+](=O)[O-] | inconclusive: 20 µM [activator, partial curve] | 
Cc1cc(C(=O)Nc2nnc(-c3ccccc3)s2)no1 | inactive | 
Cc1occc1C(=O)NNC(=O)Cc1ccccc1 | inconclusive: 0.1 µM [activator, full curve, poor fit] | 
CCOc1ccc(-n2cc(-c3ccc(OC)c(OC)c3)[nH]c2=S)cc1 | inconclusive: 35.5 µM [activator, single point] | 
ClC1(Cl)CC1Cn1c(C2CC2)nc2ccccc21 (configuration not stated) | inconclusive: 3.16 µM [activator, partial curve] | 
CCOC(=O)c1ccccc1NC(=O)COc1cc(=O)n(CC)c2ccccc12 | inconclusive: 6.31 µM [activator, single point] | 
CC1(c2nnc(-c3ccncc3)o2)CC(c2ccc([N+](=O)[O-])cc2)=NO1 (configuration not stated) | inconclusive: 1 µM [activator, single point] | 
O=C1NC(=O)/C(=C\c2ccc(N3CCOCC3)o2)N1 | inconclusive: 31.6 µM [activator, single point] | 
Cc1cc([N+](=O)[O-])nn1CCCC(=O)Nc1sc2c(c1C(N)=O)CCC(C)C2 (configuration not stated) | inconclusive: 2.51 µM [activator, partial curve, poor fit] | 
C/C(CC(=O)Nc1cccc(Cl)c1)=N\NC(=O)Cc1ccc(Cl)cc1 | inconclusive: 1 µM [activator, single point] | 
N#Cc1ccc(C23CC4(C2)[C@H](CN(CC2CCCCC2)[C@@H]4c2ccccc2)C3c2ccccc2)cc1 (some centres not stated) | inconclusive: 0.708 µM [activator, partial curve] | 
Nc1cc(-c2ccccc2)nn1S(=O)(=O)c1ccc(Br)cc1 | inconclusive: 2.51 µM [activator, partial curve] | 
CO[C@@H]1COC(=O)C/C=C\[C@H](C)[C@H](OC)COC(=O)[C@H]2CCCN2C(=O)C/C=C\[C@H]1C | inconclusive: 6.31 µM [activator, single point] | 

Pulled by compound from the entries so far, two records:
Structure (SMILES) | Potency | cytoprotection (ATP increase)
Cc1cc(C(=O)Nc2nnc(-c3ccccc3)s2)no1 | inactive | 
Cc1onc(C(=O)NCc2cccs2)c1[N+](=O)[O-] | inconclusive: 20 µM [activator, partial curve] | 
